Measurements: patent publication US20190374627A1, “TARGET PEPTIDES FOR CANCER THERAPY AND DIAGNOSTICS” (priority 2016, published 2019)

Test system: colorectal cancer
Assay: Presence of the phosphopeptide in previously analyzed colorectal cancer samples
Set-up: key: The presence of phosphopeptides in previously analyzed samples including leukemia, colorectal cancer, melanoma, ovarian cancer, breast cancer, and esophageal cancer is indicated by ✓

Colorectal, ✓:
121 (RKLSVILIL; (4)...(4) The amino acid at this position is optionally phosphorylated; listed as Homo sapiens) [compound 121]
388 (SIDSPQKL; (4)...(4) The amino acid at this position is optionally phosphorylated; listed as Homo sapiens) [compound 388]
332 (RVLSPLIIK; (4)...(4) The amino acid at this position is optionally phosphorylated; listed as Homo sapiens) [compound 332]
330 (RVASPTSGVK; (4)...(4) The amino acid at this position is optionally phosphorylated; listed as Homo sapiens) [compound 330]
236 (KRFSGTVRL; (4)...(4) The amino acid at this position is optionally phosphorylated; listed as Homo sapiens) [compound 236]
319 (RIYQYIQSRF; (5)...(5) The amino acid at this position is optionally phosphorylated; listed as Homo sapiens) [compound 319]
310 (KMPTTPVKAK; (5)...(5) The amino acid at this position is optionally phosphorylated; listed as Homo sapiens) [compound 310]
318 (RIYQYIQSR; (5)...(5) The amino acid at this position is optionally phosphorylated; listed as Homo sapiens) [compound 318]

Test system: melanoma
Assay: Presence of the phosphopeptide in previously analyzed melanoma samples
Set-up: key: The presence of phosphopeptides in previously analyzed samples including leukemia, colorectal cancer, melanoma, ovarian cancer, breast cancer, and esophageal cancer is indicated by ✓

Melanoma, ✓:
185 (RPRSPTGPSNSFL; (4)...(4) The amino acid at this position is optionally phosphorylated; listed as Homo sapiens) [compound 185]
291 (SLDSPSYVLY; (4)...(4) The amino acid at this position is optionally phosphorylated; listed as Homo sapiens) [compound 291]
311 (KRASVFVKL; (4)...(4) The amino acid at this position is optionally phosphorylated; listed as Homo sapiens) [compound 311]
121 (RKLSVILIL; (4)...(4) The amino acid at this position is optionally phosphorylated; listed as Homo sapiens) [compound 121]
388 (SIDSPQKL; (4)...(4) The amino acid at this position is optionally phosphorylated; listed as Homo sapiens) [compound 388]
341 (ATAGPRLGW; (2)...(2) The amino acid at this position is optionally phosphorylated; listed as Homo sapiens) [compound 341]
332 (RVLSPLIIK; (4)...(4) The amino acid at this position is optionally phosphorylated; listed as Homo sapiens) [compound 332]
273 (RRPSYTLGM; (4)...(4) The amino acid at this position is optionally phosphorylated; listed as Homo sapiens) [compound 273]
283 (RSRSPLEL; (4)...(4) The amino acid at this position is optionally phosphorylated; listed as Homo sapiens) [compound 283]
330 (RVASPTSGVK; (4)...(4) The amino acid at this position is optionally phosphorylated; listed as Homo sapiens) [compound 330]
236 (KRFSGTVRL; (4)...(4) The amino acid at this position is optionally phosphorylated; listed as Homo sapiens) [compound 236]
331 (RVKTPTSQSYR; (4)...(4) The amino acid at this position is optionally phosphorylated; listed as Homo sapiens) [compound 331]
319 (RIYQYIQSRF; (5)...(5) The amino acid at this position is optionally phosphorylated; listed as Homo sapiens) [compound 319]
110 (KRASGQAFEL; (4)...(4) The amino acid at this position is optionally phosphorylated; listed as Homo sapiens) [compound 110]
88 (FRKSMVEHY; (4)...(4) The amino acid at this position is optionally phosphorylated; listed as Homo sapiens) [compound 88]
310 (KMPTTPVKAK; (5)...(5) The amino acid at this position is optionally phosphorylated; listed as Homo sapiens) [compound 310]
181 (RPRSPRPPP; (4)...(4) The amino acid at this position is optionally phosphorylated; listed as Homo sapiens) [compound 181]
318 (RIYQYIQSR; (5)...(5) The amino acid at this position is optionally phosphorylated; listed as Homo sapiens) [compound 318]
323 (RLSSPVLHR; (4)...(4) The amino acid at this position is optionally phosphorylated; listed as Homo sapiens) [compound 323]
195 (RPVSPSSLL; (6)...(6) The amino acid at this position is optionally phosphorylated; listed as Homo sapiens) [compound 195]
324 (RSLSVEIVY; (4)...(4) The amino acid at this position is optionally phosphorylated; listed as Homo sapiens) [compound 324]
256 (RRFSRSPIRR; (4)...(4) The amino acid at this position is optionally phosphorylated; listed as Homo sapiens) [compound 256]
302 (IISSPLTGK; (4)...(4) The amino acid at this position is optionally phosphorylated; listed as Homo sapiens) [compound 302]
314 (MTRSPPRVSK; (4)...(4) The amino acid at this position is optionally phosphorylated; listed as Homo sapiens) [compound 314]
290 (LLDPSRSYSY; (9)...(9) The amino acid at this position is optionally phosphorylated; listed as Homo sapiens) [compound 290]
306 (KLPDSPALAK; (5)...(5) The amino acid at this position is optionally phosphorylated; listed as Homo sapiens) [compound 306]
298 (ATYTPQAPK; (4)...(4) The amino acid at this position is optionally phosphorylated; listed as Homo sapiens) [compound 298]
82 (APRSPPPSRP; (4)...(4) The amino acid at this position is optionally phosphorylated; listed as Homo sapiens) [compound 82]
280 (RRVVQRSSL; (8)...(8) The amino acid at this position is optionally phosphorylated; listed as Homo sapiens) [compound 280]
203 (RVRKLPSTTL; (7)...(7) The amino acid at this position is optionally phosphorylated; listed as Homo sapiens) [compound 203]
272 (RRPSLVHGY; (4)...(4) The amino acid at this position is optionally phosphorylated; listed as Homo sapiens) [compound 272]
300 (FRYSGKTEY; (4)...(4) The amino acid at this position is optionally phosphorylated; listed as Homo sapiens) [compound 300]
327 (RTASFAVRK; (4)...(4) The amino acid at this position is optionally phosphorylated; listed as Homo sapiens) [compound 327]
188 (RPRTPLRSL; (4)...(4) The amino acid at this position is optionally phosphorylated; listed as Homo sapiens) [compound 188]
265 (RRLSGGSHSY; (4)...(4) The amino acid at this position is optionally phosphorylated; listed as Homo sapiens) [compound 265]
378 (RRPSYRKIL; (4)...(4) The amino acid at this position is optionally phosphorylated; listed as Homo sapiens) [compound 378]
326 (RSYSYPRQK; (4)...(4) The amino acid at this position is optionally phosphorylated; listed as Homo sapiens) [compound 326]
95 (HPKRSVSL; (7)...(7) The amino acid at this position is optionally phosphorylated; listed as Homo sapiens) [compound 95]
337 (YIQSRF; (1)...(1) The amino acid at this position is optionally phosphorylated; listed as Homo sapiens) [compound 337]
366 (RQKSPLFQF; (4)...(4) The amino acid at this position is optionally phosphorylated; listed as Homo sapiens) [compound 366]
167 (RPRPVSPSSLL; (6)...(6) The amino acid at this position is optionally phosphorylated; listed as Homo sapiens) [compound 167]
321 (RLLDRSPSRSAK; (8)...(8) The amino acid at this position is optionally phosphorylated; listed as Homo sapiens) [compound 321]
325 (RSYSRSFSR; (4)...(4) The amino acid at this position is optionally phosphorylated; listed as Homo sapiens) [compound 325]
307 (KLPDSPALAKK; (5)...(5) The amino acid at this position is optionally phosphorylated; listed as Homo sapiens) [compound 307]
255 (RRFSRSPIR; (6)...(6) The amino acid at this position is optionally phosphorylated; listed as Homo sapiens) [compound 255]
